Test results taken from publication PMC2270309, “Insights into Mad2 Regulation in the Spindle Checkpoint Revealed by the Crystal Structure of the Symmetric Mad2 Dimer” (PLoS Biology, 2008).
No constants are given. Whether binding was seen depends on the method and setting.

Sequences of proteins named here, by UniProt entry; tags and fusion partners are left off. A change or cut given only in a name is not applied to a line headed by its entry.
UniProt Q13257: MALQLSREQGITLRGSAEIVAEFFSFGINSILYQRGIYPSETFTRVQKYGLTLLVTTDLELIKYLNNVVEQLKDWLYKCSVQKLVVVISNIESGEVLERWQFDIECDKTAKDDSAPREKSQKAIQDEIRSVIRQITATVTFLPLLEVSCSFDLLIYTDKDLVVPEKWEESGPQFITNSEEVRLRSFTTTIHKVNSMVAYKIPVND

Experiments:
[1] = biological target: Mad2^R184E (human) (UniProt Q13257); assay: NMR 1D 1H spectrum (line width of methyl peaks); high-field methyl region of the 1D 1H spectrum; 30 °C; 50 mM phosphate pH 6.8, 300 mM KCl, 1 mM DTT; both purified
[2] = biological target: Mad2^R184E (human) (UniProt Q13257); assay: SEC; gel filtration of the high-salt peak (Q2) of anion exchange chromatography (holds the C-Mad2 conformer); both purified
[3] = biological target: Mad2^WT (wild-type human Mad2, untagged) (human) (UniProt Q13257); assay: condition: only the low-salt peak (Q1), O-Mad2 conformer; SEC; gel filtration of the low-salt peak (Q1) of anion exchange chromatography (O-Mad2 conformer); both purified

| Substance | binding [1] | binding [2] | binding [3] |
| --- | --- | --- | --- |
| Mad2^R184E (from UniProt Q13257 1-205) | no binding | no binding | – |
| Mad2^WT (wild-type human Mad2, untagged) (from UniProt Q13257 1-205) | – | – | no binding |
